{
  "source": "patent EP0286418A1",
  "about": "“Anti-retroviral agents and delivery systems for the same” (priority 1987, dated 1988)",
  "experiment": "leakage from liposomes at 4°C",
  "type": "physicochemical",
  "conditions": "liposomes of Example 1 or similar liposomes",
  "note": "For at least one compound, name, drawing or mass did not settle the structure.",
  "data": [
    {"smiles": "Cc1cn([C@H]2C[C@H](N=[N+]=[N-])[C@@H](CO)O2)c(=O)[nH]c1=O", "note": "[azidothymidine, Azidothymidine, reference compound]", "values": [
      {"measurement": "t1/2 for leakage from liposomes", "value": "< 2", "unit": "h"}
    ]}
  ]
}
